In PubChem BioAssay AID504327 (National Center for Advancing Translational Sciences (NCATS), 2011):
Screen size: about 390,000 compounds; about 820 (0.21%) were called active. Inconclusive results, whose numbers are uncertain, are shown with a selection of clear calls. Calls follow the shape of the dose curve; as a rule, active = well fitted inhibition curve with a large enough effect; inconclusive = small, poorly fitted or top-dose-only effect, or another doubt; inactive = no such curve, though single readings can be large or run the other way. Potencies of inconclusive entries are doubtful fits and often do not repeat.

Chains of the proteins cited; added tags and fusions are not shown.
UniProt Q92830, whole entry, looked up: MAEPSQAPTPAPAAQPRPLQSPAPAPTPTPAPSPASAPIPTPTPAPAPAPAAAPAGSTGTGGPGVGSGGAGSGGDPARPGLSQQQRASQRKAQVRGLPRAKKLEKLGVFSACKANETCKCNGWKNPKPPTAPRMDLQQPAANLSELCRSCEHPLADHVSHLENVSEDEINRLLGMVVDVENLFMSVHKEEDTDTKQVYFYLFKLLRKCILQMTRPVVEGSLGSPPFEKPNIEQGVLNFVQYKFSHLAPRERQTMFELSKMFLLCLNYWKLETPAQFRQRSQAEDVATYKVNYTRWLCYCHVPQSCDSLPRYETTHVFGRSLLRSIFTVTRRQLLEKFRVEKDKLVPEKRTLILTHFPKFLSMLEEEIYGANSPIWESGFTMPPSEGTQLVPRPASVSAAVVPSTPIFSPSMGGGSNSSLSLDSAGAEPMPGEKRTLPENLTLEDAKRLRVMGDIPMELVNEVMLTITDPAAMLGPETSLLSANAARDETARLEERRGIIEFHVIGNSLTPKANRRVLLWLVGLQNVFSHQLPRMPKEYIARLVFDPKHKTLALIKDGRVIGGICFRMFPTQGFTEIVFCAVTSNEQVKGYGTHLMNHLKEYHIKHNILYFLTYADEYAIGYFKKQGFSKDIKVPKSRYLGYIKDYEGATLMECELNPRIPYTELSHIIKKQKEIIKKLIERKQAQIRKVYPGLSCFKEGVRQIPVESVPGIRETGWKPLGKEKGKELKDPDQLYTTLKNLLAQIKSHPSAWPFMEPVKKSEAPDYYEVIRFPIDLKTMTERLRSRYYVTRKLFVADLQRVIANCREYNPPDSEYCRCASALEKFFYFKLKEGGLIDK

Each compound was assayed against Histone acetyltransferase KAT2A (Homo sapiens) (UniProt Q92830) (assay: qHTS Assay for Inhibitors of GCN5L2). Details: GCN5L2 HAT assay, ThioGlo1 CoA-SH fluorescence; activity change, negative = inhibition: at 58.9 µM (top of the series) unless noted.
Method in brief: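 Fluorescence readout, Ex340nm/Em540nm: ThioGlo1 (50uM final) reacts with free CoA thiol released as 20nM GCN5L2 acetylates H3(1-25) peptide (75uM) using acetyl-CoA (70uM). Compound and enzyme sat 15 min beforehand; 20 min room-temperature reaction.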
% is scaled to controls: 0 for no effect and ±100 for the full control effect; potency is read from the fitted curve at half-maximal effect.

Structure (SMILES) | Potency | activity change, negative = inhibition
CC(C)[C@@]1(NC(=O)[C@@H]2C[C@@H]3c4cccc5[nH]cc(c45)C[C@H]3N(C)C2)O[C@@]2(O)[C@@H]3CCCN3C(=O)[C@H](Cc3ccccc3)N2C1=O | inconclusive: 39.8 µM [inhibitor, single point] | –
O=C(NC1CONC1=O)OCC(Cl)(Cl)Cl (configuration not stated) | – | inactive: 1.37%
CC(C)(C)NS(=O)(=O)c1ccc(OCC(=O)N2CCN(Cc3ccccc3)CC2)cc1 | inconclusive: 39.8 µM [inhibitor, single point] | –
O=C1CCCC2C3CCCN4CCCC(CN12)C34 (configuration not stated) | inconclusive: 31.6 µM [inhibitor, single point] | –
C/C(=N\NC(=O)c1ccccc1)c1c(O)n(Cc2ccccc2)c(=O)[nH]c1=O | inconclusive: 12.6 µM [inhibitor, partial curve, poor fit] | –
CCCC(C)C1(CC)C(=O)NC(=S)NC1=O (configuration not stated) | inconclusive: 44.7 µM [inhibitor, single point] | –
COc1ccc(C(C)=O)cc1Cc1c(O)[nH]c(=S)[nH]c1=O | inconclusive: 31.6 µM [inhibitor, single point] | –
CCC12C=CCN3CCC4(c5cc(Br)c(OC)cc5N(C)C4C(O)(C(=O)OC)C1OC(C)=O)C32 (configuration not stated) | inconclusive: 31.6 µM [inhibitor, partial curve] | –
O=C1NC(=O)N(Cc2ccc(F)cc2)C(=O)/C1=C\c1ccoc1 | inconclusive: 39.8 µM [inhibitor, single point] | –
CC(CO)NC(=O)C1C=C2c3cccc4[nH]cc(c34)C[C@H]2N(C)C1 (some centres not stated) | – | inactive: -25.6%
CC1CCC(C)(NS(=O)(=O)OCC(Cl)(Cl)Cl)CC1 (configuration not stated) | inconclusive: 3.55 µM [inhibitor, single point] | –
CCOc1ccc(N2C(=O)/C(=C/c3ccco3)C(=O)NC2=S)cc1 | active: 22.4 µM | –
NC(=O)c1ccc(OCC(O)CN2CC=C(c3ccc(F)cc3)CC2)cc1 (configuration not stated) | inconclusive: 39.8 µM [inhibitor, single point] | –
C[N+](C)(C)CC#CCN1CCCC1=O | inconclusive: 11.2 µM [inhibitor, partial curve, poor fit] | –
COc1ccc(N2C(=O)/C(=C/c3ccco3)C(=O)NC2=S)cc1 | active: 17.8 µM | –
Oc1ccccc1-[n+]1c(-c2ccccc2)cc(-c2ccccc2)cc1-c1ccccc1 | – | inactive: -11.2%
COc1ccc(/C=C2/C(=O)NC(=O)N(Cc3ccco3)C2=O)cc1 | inconclusive: 39.8 µM [inhibitor, single point] | –
C[n+]1c2cc(N)ccc2cc2ccc(N)cc21 | inconclusive: 22.4 µM [inhibitor, single point] | –
CN1OCC2Cn3c(nc4ccccc43)C21 (configuration not stated) | – | inactive: 34%
CN1CCN(c2ccc(N)cc2Cl)CC1 | – | inactive: -2.05%
CN1C[C@H](C(=O)N[C@]2(C)O[C@@]3(O)[C@@H]4CCCN4C(=O)[C@H](Cc4ccccc4)N3C2=O)CC2c3cccc4[nH]cc(c34)C[C@H]21 (some centres not stated) | inconclusive: 0.794 µM [inhibitor, partial curve, poor fit] | –

Copied from the list.
Under Potency, `O=C1NC(=O)N(Cc2ccc(F)cc2)C(=O)/C1=C\c1ccoc1` reads inconclusive: 39.8 µM [inhibitor, single point]
Under Potency, `CN1C[C@H](C(=O)N[C@]2(C)O[C@@]3(O)[C@@H]4CCCN4C(=O)[C@H](Cc4ccccc4)N3C2=O)CC2c3cccc4[nH]cc(c34)C[C@H]21` (some centres not stated) reads inconclusive: 0.794 µM [inhibitor, partial curve, poor fit]
Under Potency, `COc1ccc(C(C)=O)cc1Cc1c(O)[nH]c(=S)[nH]c1=O` reads inconclusive: 31.6 µM [inhibitor, single point]

(cont.)

Structure (SMILES) | Potency | activity change, negative = inhibition
Cc1ccc(N2C(=O)NC(=O)/C(=C/c3ccc(-c4ccc(C(=O)O)c(Cl)c4)o3)C2=O)cc1 | inconclusive: 28.2 µM [inhibitor, single point] | –
Cc1c(C)c2c(OCC(=O)N[C@@H](C)C(=O)O)cc3c(c2oc1=O)CCC(C)(C)O3 | inconclusive: 28.2 µM [inhibitor, single point] | –
COc1ccc(/C=C2/C(=O)NC(=O)N(c3ccccc3)C2=O)cc1CN1C(=O)c2ccccc2C1=O | – | inactive: -25%
COc1ccc(NC(=O)N2CCC3(CC2)OCCO3)cc1 | – | inactive: 1.29%
Cc1ccc2c(c1)=C(c1ccccc1)N(O)CC(=O)N=2 | inconclusive: 28.2 µM [inhibitor, partial curve, poor fit] | –
CCOP(=S)(OCC)Oc1cc(C)oc(=O)c1Cl | inconclusive: 39.8 µM [inhibitor, single point] | –
c1cc(CN2CCCC3(CCNCC3)C2)ccn1 | – | inactive: -16.5%
CSc1ncc(/C=C2/C(=O)NC(=O)N(C3CCCCC3)C2=O)cn1 | – | inactive: -1.71%
Cl.Cl.Cl.Cl.Cl.Cl.N.N.N.N.NNNNN.NNNNN.O.O.[Ru].[Ru].[Ru] | inconclusive: 31.6 µM [inhibitor, partial curve] | –
O=C1CC(=O)N(Cc2ccccc2)C(=O)N1CCCCCCN1C(=O)CC(=O)N(Cc2ccccc2)C1=O | inconclusive: 20 µM [inhibitor, partial curve] | –
O=C(c1ccccc1)c1ccccc1N=Cc1c(O)[nH]c(=O)[nH]c1=O | – | inactive: 1.85%
Cc1cc(OCC(=O)N2CCC(C(=O)O)(c3ccccc3)CC2)c2c(C)cc(=O)oc2c1 | inconclusive: 12.6 µM [inhibitor, partial curve] | –
C=CCN1CCc2cccc3c2[C@H]1Cc1ccc(O)c(O)c1-3 | inconclusive: 39.8 µM [inhibitor, single point] | –
COc1cc(/C=C2/SC(=S)N(Cc3ccccc3)C2=O)ccc1OCC(=O)O | inconclusive: 35.5 µM [inhibitor, single point] | –
Cc1ccc(N)c(C(=O)c2ccccc2)c1 | inconclusive: 1 µM [inhibitor, partial curve, poor fit] | –
Cc1ccc(C)c(OCc2cc(C(=O)N3C[C@H]4C[C@@H](C3)c3cccc(=O)n3C4)no2)c1 | inconclusive: 3.16 µM [inhibitor, partial curve] | –
Cc1nc2ccccc2c(=O)n1-c1ccccc1C(F)(F)F | inconclusive: 0.562 µM [inhibitor, single point] | –
CC(C)CC(=O)NC(Oc1ccc(Cl)cc1)C(Cl)(Cl)Cl (configuration not stated) | active: 0.708 µM | –
C/C(=N\N1CCCCCC1)c1c(O)n(-c2ccccc2C)c(=O)[nH]c1=O | – | inactive: -2.55%
CCN(CC)C(=O)c1ccc(NC(=O)c2cccc(S(=O)(=O)N3CCN(C)CC3)c2)cc1 | – | inactive: -3.52%
COP(=O)(CC(=O)O)c1ccccc1 (configuration not stated) | – | inactive: 0.155%
